Results are given in words; binding and its absence hold for the method and conditions named. Some results given as binding are weak or reduced against the parent protein; the word gives no strength.
Target: T1, human p22^phox (human) (UniProt P13498)
T1 sequence: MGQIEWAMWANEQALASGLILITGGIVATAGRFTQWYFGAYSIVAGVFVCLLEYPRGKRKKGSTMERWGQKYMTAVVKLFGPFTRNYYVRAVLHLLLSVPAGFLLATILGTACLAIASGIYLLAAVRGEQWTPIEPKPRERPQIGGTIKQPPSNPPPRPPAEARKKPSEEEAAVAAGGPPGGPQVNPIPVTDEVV
Assay: immunoaffinity co-purification + SEC; DDM/CHS-solubilised PLB-985 membranes applied to Protein G Sepharose prepacked with the p22phox-specific mAb CS9; eluted with 200 uM p22phox epitope peptide; then gel filtration on Superdex 200 Increase 5/150; 10 mM HEPES pH 7.4, 10 mM NaCl, 100 mM KCl, 0.026% DDM, 0.0052% CHS

B1: human NOX2 (enzyme, UniProt P04839 1-570)
chain: MGNWAVNEGLSIFVILVWLGLNVFLFVWYYRVYDIPPKFFYTRKLLGSALALARAPAACLNFNCMLILLPVCRNLLSFLRGSSACCSTRVRRQLDRNLTFHKMVAWMIALHSAIHTIAHLFNVEWCVNARVNNSDPYSVALSELGDRQNESYLNFARKRIKNPEGGLYLAVTLLAGITGVVITLCLILIITSSTKTIRRSYFEVFWYTHHLFVIFFIGLAIHGAERIVRGQTAESLAVHNITVCEQKISEWGKIKECPIPQFAGNPPMTWKWIVGPMFLYLCERLVRFWRSQQKVVITKVVTHPFKTIELQMKKKGFKMEVGQYIFVKCPKVSKLEWHPFTLTSAPEEDFFSIHIRIVGDWTEGLFNACGCDKQEFQDAWKLPKIAVDGPFGTASEDVFSYEVVMLVGAGIGVTPFASILKSVWYKYCNNATNLKLKKIYFYWLCRDTHAFEWFADLLQLLESQMQERNNAGFLSYNIYLTGWDESQANHFAVHHDEEKDVITGLKQKTLYGRPNWDNEFKTIASQHPNTRIGVFLCGPEALAETLSKQSISNSESGPRGVHFIFNKENF
Q: With B1 as the binder, how does the binding read?
A: binds

Source: article PMC11956017, “Design of Benzyl-triazolopyrimidine-Based NADPH Oxidase Inhibitors Leads to the Discovery of a Potent Dual Covalent NOX2/MAOB Inhibitor” (Journal of Medicinal Chemistry, 2025)
